The subject of the data set is E. coli BL21(DE3) cells. Description: ICP-MS distribution of iridium in subcellular fractions. In kind it is cell-based. Conditions: 0.1 μM Ir(Me)MPIX.

For `CCC1=C(C)c2cc3[n-]c(cc4[n-]c(cc5nc(cc1n2)C(C)=C5CC)c(C)c4CCC(=O)O)c(CCC(=O)O)c3C.[CH3-].[Ir+3]` [Ir(Me)MPIX], the “iridium located in the cytoplasm” value (cells harboring CYP119, expressing no transporter) is recorded as 10%; the “iridium located in the cytoplasm” value (cells harboring CYP119 and expressing the HUG transport system) stood at 65%.

These data come from patent publication US12129493B2, “Host cells and methods useful for producing unnatural terpenoids using a novel artificial metalloenzyme” (The Regents of the University of California, priority 2020, dated 2024).
